Values of other authors in patent publication US20120149888A1, “SYNTHESIS OF ARA-2'-O-METHYL-NUCLEOSIDES, CORRESPONDING PHOSPHORAMIDITES AND OLIGONUCLEOTIDES INCORPORATING NOVEL MODIFICATIONS FOR BIOLOGICAL APPLICATION IN THERAPEUCTICS, DIAGNOSTICS, G- TETRAD FORMING OLIGONUCLEOTIDES AND APTAMERS” (priority 2009, published 2012).
Where two headings read alike, the source gives them in different places. For part of these data: For at least one compound, name, drawing or mass did not settle the structure. Some of these results come from one statement about several compounds together.

Experiments:
[1] = test system: 11 human tumor xenografts; settings: i.v. for 10 consecutive days, in the responding tumors
[2] = test system: explants of intact rat colonic mucosa

C#C[C@@]1(O)[C@@H](CO)O[C@@H](n2ccc(N)nc2=O)[C@@H]1O [ECyd, 1-(3-C-ethynyl-beta-D-ribo-pentofuranosyl)cytosine]
tumor inhibition ratio (inhibition relative to the control) ([1]; 0.25 mg/kg): 73-92%

C#C[C@@]1(O)[C@@H](CO)O[C@@H](n2ccc(=O)[nH]c2=O)[C@@H]1O [EUrd, 1-(3-C-ethynyl-beta-D-ribo-pentofuranosyl)uracil]
tumor inhibition ratio (inhibition relative to the control) ([1]; 2.0 mg/kg): 73-92%

O=[N+]([O-])c1ccc(CSc2ncnc3c2ncn3C2OC(CO)C(O)C2O)cc1 (stereo not drawn) [NBMPR, nitrobenzylthioinosine]
incorporation of tritiated TdR into DNA [2]: reduced
